Measured values as given in patent US5958407A, “Ileus treatment method” (The Regents of the Uinversity of California, priority 1998, dated 1999).
Part of at least one peptide drawing is inferred or uncertain, most often the ends. No end group written: not given here.

Tested on: strips of rat proximal colon

## SLIGRL-NH2 [AP, SLIGRL-NH2]
  effect on motility of tetrodotoxin-treated tissues: inhibited this elevated motility
